Paper PMC10719344
These are yes or no findings as the source states them, for the method shown. Binding seen in cells or lysates may run through a third protein. Some results given as binding are weak or reduced against the parent protein; the word gives no strength.

By UniProt entry, the sequences of proteins in these tests, tags left out.
UniProt Q92841: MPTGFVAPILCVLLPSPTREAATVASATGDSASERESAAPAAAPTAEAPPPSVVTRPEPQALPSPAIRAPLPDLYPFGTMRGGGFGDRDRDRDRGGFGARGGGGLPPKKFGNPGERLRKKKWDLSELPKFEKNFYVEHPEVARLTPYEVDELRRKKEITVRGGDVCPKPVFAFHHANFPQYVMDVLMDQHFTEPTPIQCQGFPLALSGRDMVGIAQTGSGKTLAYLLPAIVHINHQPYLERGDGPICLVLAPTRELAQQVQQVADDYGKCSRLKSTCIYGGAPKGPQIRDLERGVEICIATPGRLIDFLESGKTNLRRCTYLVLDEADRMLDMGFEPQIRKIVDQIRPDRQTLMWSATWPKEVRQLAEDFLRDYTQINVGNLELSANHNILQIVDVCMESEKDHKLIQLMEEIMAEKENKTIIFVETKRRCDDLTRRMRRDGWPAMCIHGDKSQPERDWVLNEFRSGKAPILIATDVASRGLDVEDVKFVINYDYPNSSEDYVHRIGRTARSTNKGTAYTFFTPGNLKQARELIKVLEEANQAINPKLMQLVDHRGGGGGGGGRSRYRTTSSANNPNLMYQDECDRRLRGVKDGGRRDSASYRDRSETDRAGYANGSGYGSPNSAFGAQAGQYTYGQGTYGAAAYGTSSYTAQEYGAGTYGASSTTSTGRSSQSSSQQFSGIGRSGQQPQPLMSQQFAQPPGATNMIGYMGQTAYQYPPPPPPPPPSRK
UniProt P84022: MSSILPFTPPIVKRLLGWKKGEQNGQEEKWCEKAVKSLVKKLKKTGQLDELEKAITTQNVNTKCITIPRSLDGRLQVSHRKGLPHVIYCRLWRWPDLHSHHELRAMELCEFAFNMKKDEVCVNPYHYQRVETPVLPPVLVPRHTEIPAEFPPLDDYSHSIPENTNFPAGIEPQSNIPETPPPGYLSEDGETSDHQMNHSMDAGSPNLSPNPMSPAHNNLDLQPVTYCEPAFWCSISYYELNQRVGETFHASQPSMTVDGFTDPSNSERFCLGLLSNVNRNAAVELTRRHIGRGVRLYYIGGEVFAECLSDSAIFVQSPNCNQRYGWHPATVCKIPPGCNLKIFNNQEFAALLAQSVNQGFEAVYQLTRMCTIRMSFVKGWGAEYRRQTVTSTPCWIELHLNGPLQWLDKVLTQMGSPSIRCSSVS

Biological target: HA-DDX17 (UniProt Q92841)
Assay: co-IP; IP with anti-HA antibody (HA-DDX17) from lysates of HEK293T cells co-transfected with HA-DDX17 and FLAG-SMAD3 or FLAG-SMAD3 mutants; 5 uM MG-132 for 12 h before harvest; with or without SB431542; blot with anti-FLAG

- binding: binds
Substance: FLAG-SMAD3 (from UniProt P84022 1-425)
